Results are given in words; binding and its absence hold for the method and conditions named. In cells and extracts the contact can be indirect. Some results given as binding are weak or reduced against the parent protein; the word gives no strength.
Biological target: G protein-coupled receptor kinase 4 (rat (endogenous in renal cortex of WKY rats and SHRs)) (UniProt P70507)
Test: co-IP; lysate (300 ug protein/mL) of renal cortex of WKY rats and SHRs incubated with anti-GRK4 antibody (5 ug/mL) for 1 h and protein-A/G plus-agarose at 4°C overnight; immunoblot with anti-Mas receptor antibody; IgG as negative control, anti-Mas receptor antibody as positive control

By UniProt entry, the sequences of proteins in these tests, tags left out.
UniProt P70507: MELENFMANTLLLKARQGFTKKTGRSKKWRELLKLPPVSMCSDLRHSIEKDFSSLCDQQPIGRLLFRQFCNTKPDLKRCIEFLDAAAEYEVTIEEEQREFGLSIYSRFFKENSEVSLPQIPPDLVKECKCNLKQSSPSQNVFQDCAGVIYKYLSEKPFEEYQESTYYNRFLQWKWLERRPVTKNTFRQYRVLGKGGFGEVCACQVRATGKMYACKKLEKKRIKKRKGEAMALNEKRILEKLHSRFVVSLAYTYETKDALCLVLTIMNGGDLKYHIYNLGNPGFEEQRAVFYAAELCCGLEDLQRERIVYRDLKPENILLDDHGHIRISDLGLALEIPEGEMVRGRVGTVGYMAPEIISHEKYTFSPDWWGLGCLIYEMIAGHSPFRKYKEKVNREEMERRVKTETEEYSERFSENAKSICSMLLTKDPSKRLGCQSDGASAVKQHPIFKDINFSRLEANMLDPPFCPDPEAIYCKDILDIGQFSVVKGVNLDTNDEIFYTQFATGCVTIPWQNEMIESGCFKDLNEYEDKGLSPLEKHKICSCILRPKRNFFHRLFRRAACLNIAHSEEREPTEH

binding: binds
B1: Mas receptor (receptor, UniProt P12526 1-324)
chain: MDQSNMTSFAEEKAMNTSSRNASLGTSHPPIPIVHWVIMSISPLGFVENGILLWFLCFRMRRNPFTVYITHLSIADISLLFCIFILSIDYALDYELSSGHYYTIVTLSVTFLFGYNTGLYLLTAISVERCLSVLYPIWYRCHRPKHQSAFVCALLWALSCLVTTMEYVMCIDSGEESHSQSDCRAVIIFIAILSFLVFTPLMLVSSTILVVKIRKNTWASHSSKLYIVIMVTIIIFLIFAMPMRVLYLLYYEYWSTFGNLHNISLLFSTINSSANPFIYFFVGSSKKKRFRESLKVVLTRAFKDEMQPRRQEGNGNTVSIETVV

Source: PMC12324092
